Data from publication PMC8997158.
These are yes or no findings as the source states them, for the method shown. For some assays here: Binding seen in cells or lysates may run through a third protein. Some entries that bind do so weakly or less than the wild type. Blank lines part the entries; values can stand above or below the substance they belong to.

Protein sequences, listed by entry. Tags and fused reporters are not part of them. Lines headed by an entry give the natural chain unless they say otherwise; changes in a name come on top.
UniProt Q13263: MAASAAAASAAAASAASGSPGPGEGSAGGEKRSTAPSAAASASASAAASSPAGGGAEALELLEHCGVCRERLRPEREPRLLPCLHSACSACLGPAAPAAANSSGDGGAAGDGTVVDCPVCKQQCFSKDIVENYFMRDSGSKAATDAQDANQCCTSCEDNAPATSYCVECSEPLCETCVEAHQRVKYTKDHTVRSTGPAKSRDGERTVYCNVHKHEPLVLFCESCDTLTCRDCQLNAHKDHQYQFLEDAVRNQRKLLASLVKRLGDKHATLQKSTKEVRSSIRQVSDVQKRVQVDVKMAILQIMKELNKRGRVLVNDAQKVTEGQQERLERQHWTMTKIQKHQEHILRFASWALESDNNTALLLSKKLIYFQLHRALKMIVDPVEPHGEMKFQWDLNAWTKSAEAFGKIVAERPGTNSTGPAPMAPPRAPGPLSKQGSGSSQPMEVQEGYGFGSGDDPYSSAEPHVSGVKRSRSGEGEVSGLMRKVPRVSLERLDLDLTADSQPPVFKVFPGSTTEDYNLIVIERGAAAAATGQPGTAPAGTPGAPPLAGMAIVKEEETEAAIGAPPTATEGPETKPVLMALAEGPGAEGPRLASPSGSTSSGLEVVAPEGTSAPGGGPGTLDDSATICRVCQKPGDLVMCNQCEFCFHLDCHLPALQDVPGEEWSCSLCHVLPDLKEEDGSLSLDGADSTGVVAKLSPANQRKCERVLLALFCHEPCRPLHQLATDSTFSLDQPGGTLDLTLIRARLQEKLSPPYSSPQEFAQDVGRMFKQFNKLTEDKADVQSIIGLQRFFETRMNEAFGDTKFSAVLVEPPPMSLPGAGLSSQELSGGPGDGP
UniProt Q9HAU4: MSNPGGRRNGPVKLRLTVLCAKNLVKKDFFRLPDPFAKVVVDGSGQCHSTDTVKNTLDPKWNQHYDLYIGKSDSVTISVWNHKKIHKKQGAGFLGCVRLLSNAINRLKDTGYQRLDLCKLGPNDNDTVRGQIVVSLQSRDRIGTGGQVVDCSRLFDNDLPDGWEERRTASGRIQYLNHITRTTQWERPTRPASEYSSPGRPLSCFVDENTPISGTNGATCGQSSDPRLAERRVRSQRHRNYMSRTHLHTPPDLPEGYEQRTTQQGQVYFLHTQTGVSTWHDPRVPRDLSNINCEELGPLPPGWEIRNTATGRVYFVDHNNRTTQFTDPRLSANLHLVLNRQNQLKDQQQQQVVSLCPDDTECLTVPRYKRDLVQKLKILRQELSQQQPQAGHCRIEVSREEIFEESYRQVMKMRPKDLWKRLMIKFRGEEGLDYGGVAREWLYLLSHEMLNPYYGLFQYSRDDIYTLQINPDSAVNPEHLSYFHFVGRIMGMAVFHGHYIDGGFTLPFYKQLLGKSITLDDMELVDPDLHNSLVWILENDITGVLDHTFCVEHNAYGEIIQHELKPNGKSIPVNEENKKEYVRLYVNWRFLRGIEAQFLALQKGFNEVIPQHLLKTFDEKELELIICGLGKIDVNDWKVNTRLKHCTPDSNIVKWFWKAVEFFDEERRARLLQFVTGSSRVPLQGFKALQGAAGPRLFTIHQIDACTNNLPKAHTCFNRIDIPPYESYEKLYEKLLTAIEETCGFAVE

Columns and labels:
[1] = molecular target: endogenous KAP1 of U2OS cells (human (endogenous in U2OS)) (UniProt Q13263); assay: proximity ligation; Duolink in situ PLA in U2OS cells transiently transfected with MYC-SMURF2; anti-MYC and anti-KAP1 antibodies; MYC-Empty vector as control
[2] = molecular target: MYC-SMURF2 wild-type (SMURF2WT), expressed in HEK-293T cells (UniProt Q9HAU4); assay: co-IP; reciprocal co-IP from HEK-293T cells co-expressing FLAG-KAP1 and MYC-SMURF2 (WT or CG); anti-FLAG M2 affinity gel or anti-MYC antibody; 1% NP40 buffer (10 mM Tris pH 7.5, 150 mM NaCl, 5 mM EDTA, 10% glycerol), overnight at 4 °C
[3] = molecular target: MYC-SMURF2CG, catalytically-inactive SMURF2 (C716G), expressed in HEK-293T cells (UniProt Q9HAU4); assay: as above
[4] = molecular target: N-terminal FLAG-tagged KAP1 (FLAG-KAP1), expressed in HEK-293T cells (UniProt Q13263); assay: as above
[5] = molecular target: GST-SMURF2 (wild-type), purified from bacteria (UniProt Q9HAU4); assay: pull-down; in vitro GST pull-down: FLAG-KAP1 co-incubated with GST-SMURF2 in 50 mM Tris-HCl pH 7.5, 120 mM NaCl, 2 mM EDTA, 0.1% Nonidet P40 substitute, 37 °C, 15 min; GST-SMURF2 pulled down on Glutathione Sepharose 4B; blots with anti-SMURF2 and anti-KAP1; both purified
[6] = molecular target: KAP1 in the co-immunoprecipitation from U2OS cells (UniProt Q13263); assay: co-IP; co-IP from U2OS cells (Figure S1); who was precipitated is not given
[7] = molecular target: endogenous SMURF2 of HEK-293T cells (human (endogenous in HEK-293T)) (UniProt Q9HAU4); assay: co-IP; endogenous co-IP from HEK-293T cells; IP with anti-SMURF2 antibody, isotype IgG as control; 0.5% NP40 buffer (10 mM Tris pH 7.5, 150 mM NaCl, 5 mM EDTA, 10% glycerol), overnight at 4 °C

binding [4]: binds
Substance: MYC-SMURF2CG, catalytically-inactive SMURF2 (C716G), expressed in HEK-293T cells (from UniProt Q9HAU4 1-748) (enzyme)

binding [6]: binds
Substance: SMURF2 in the co-immunoprecipitation from U2OS cells (from UniProt Q9HAU4 1-748) (enzyme)

binding [7]: binds
Substance: endogenous KAP1 of HEK-293T cells (from UniProt Q13263 1-835)

The next lines start with the substance.

Substance: MYC-SMURF2, expressed in U2OS cells (from UniProt Q9HAU4 1-748) (enzyme)
binding [1]: binds

Substance: N-terminal FLAG-tagged KAP1 (FLAG-KAP1), expressed in HEK-293T cells (from UniProt Q13263 1-835)
binding [2]: binds | binding [3]: binds

Substance: FLAG-KAP1 produced in the TNT SP6 high-yield wheat germ expression system (from UniProt Q13263 1-835)
binding [5]: binds

Substance: MYC-SMURF2 wild-type (SMURF2WT), expressed in HEK-293T cells (from UniProt Q9HAU4 1-748) (enzyme)
binding [4]: binds
